Results: patent US20120079613A1
Results are given in words; binding and its absence hold for the method and conditions named. Some binding calls cover weakened binding; strength is not graded here. Blank lines part the entries; values can stand above or below the substance they belong to.

Protein sequences, listed by entry. Tags and fused reporters are not part of them. Lines headed by an entry give the natural chain unless they say otherwise; changes in a name come on top.
UniProt Q01147: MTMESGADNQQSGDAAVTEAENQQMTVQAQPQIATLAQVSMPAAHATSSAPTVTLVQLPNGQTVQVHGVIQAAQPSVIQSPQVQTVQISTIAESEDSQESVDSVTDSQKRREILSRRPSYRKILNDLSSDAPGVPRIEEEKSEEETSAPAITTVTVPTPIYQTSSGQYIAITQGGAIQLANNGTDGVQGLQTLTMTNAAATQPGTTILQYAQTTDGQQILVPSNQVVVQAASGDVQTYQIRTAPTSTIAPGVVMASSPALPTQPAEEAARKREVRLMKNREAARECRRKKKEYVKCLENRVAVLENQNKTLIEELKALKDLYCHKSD
UniProt Q9R1E0: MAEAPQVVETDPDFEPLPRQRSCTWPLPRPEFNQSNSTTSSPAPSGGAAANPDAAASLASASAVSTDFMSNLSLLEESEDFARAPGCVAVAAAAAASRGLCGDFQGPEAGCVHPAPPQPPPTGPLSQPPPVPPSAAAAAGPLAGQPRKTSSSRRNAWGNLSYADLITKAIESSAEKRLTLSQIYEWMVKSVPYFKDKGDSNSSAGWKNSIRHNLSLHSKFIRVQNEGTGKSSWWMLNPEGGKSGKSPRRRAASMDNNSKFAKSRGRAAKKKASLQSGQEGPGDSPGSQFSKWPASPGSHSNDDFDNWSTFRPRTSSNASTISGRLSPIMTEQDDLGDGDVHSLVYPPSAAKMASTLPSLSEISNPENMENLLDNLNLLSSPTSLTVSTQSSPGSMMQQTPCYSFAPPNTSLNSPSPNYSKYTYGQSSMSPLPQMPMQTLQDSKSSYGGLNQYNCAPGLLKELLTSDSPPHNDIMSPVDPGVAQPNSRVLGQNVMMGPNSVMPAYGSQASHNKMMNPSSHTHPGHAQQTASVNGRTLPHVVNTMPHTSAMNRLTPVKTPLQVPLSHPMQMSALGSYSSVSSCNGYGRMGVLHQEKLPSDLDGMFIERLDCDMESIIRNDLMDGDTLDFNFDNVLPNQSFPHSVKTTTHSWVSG
UniProt Q810B3: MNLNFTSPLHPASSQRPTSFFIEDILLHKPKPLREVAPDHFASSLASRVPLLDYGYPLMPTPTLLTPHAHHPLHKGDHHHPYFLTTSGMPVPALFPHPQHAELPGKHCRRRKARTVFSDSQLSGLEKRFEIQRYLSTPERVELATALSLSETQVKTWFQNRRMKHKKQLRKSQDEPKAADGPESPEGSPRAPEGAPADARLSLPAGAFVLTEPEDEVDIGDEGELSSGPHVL

Tests used:
[1] = biological target: in vitro translated full length CREB protein (mouse) (UniProt Q01147); assay: reciprocal GST pull down; GST::Bsx with 35S-Met in vitro translated CREB
[2] = biological target: in vitro translated full length CREB protein (mouse) (UniProt Q01147); assay: GST pull down; GST::Bsx with 35S-Met in vitro translated CREB
[3] = biological target: in vitro translated full length FoxO1 protein (mouse) (UniProt Q9R1E0); assay: GST pull down; GST::Bsx on glutathione sepharose with 35S-Met in vitro translated FoxO1, autoradiography
[4] = biological target: in vitro translated full length CREB protein (mouse) (UniProt Q01147); assay: reciprocal GST pull down; GST::Bsx on glutathione sepharose with 35S-Met in vitro translated CREB, autoradiography
[5] = biological target: in vitro translated full length Bsx protein (mouse) (UniProt Q810B3); assay: reciprocal GST pull down; GST::CREB with 35S-Met in vitro translated Bsx
[6] = biological target: in vitro translated full length Bsx protein (mouse) (UniProt Q810B3); assay: GST pull down; GST::CREB with 35S-Met in vitro translated Bsx
[7] = biological target: in vitro translated full length Bsx protein (mouse) (UniProt Q810B3); assay: reciprocal GST pull down; GST::CREB on glutathione sepharose with 35S-Met in vitro translated Bsx, autoradiography
[8] = biological target: in vitro translated full length Bsx protein (mouse) (UniProt Q810B3); assay: GST pull down; GST::FoxO1 on glutathione sepharose with 35S-Met in vitro translated Bsx, autoradiography

- binding [1]: binds
- binding [2]: binds
- binding [3]: binds
- binding [4]: binds
Substance: GST::Bsx (full length mouse Bsx expressed and purified as GST fusion protein) (from UniProt Q810B3 1-232)

- binding [5]: binds
- binding [6]: binds
- binding [7]: binds
Substance: GST::CREB (full length mouse CREB expressed and purified as GST fusion protein) (from UniProt Q01147 1-327)

- binding [8]: binds
Substance: GST::FoxO1 (full length mouse Foxo1 expressed and purified as GST fusion protein) (from UniProt Q9R1E0 1-652)
